Laboratory results from the supplement of paper PMC8728848.
This is one part of the list.

Experiments:
Assay in all cases: glycan array binding signal (z-score within array); higher = stronger binding
Conditions in all cases: glycan notation: IUPAC condensed, linker removed
[1] = biological target: Neu5Ac(a2-6)Gal(b1-4)GlcNAc(b1-2)Man(a1-3)[Man(a1-6)]Man(b1-4)GlcNAc(b1-4)GlcNAc
Outline: (§1)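 Negative Z-scores can be read as non-binding. The Z-score is calculated within each array and then averaged across arrays of one protein sequence at different concentrations or buffers and across linkers. Arrays, 3228 in all, were curated from the Consortium for Functional Glycomics database and kept only where the protein sequence was available.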

[2] = biological target: Neu5Ac(a2-6)Gal(b1-4)GlcNAc(b1-2)Man(a1-3)[Neu5Ac(a2-3)Gal(b1-4)GlcNAc(b1-2)Man(a1-6)]Man(b1-4)GlcNAc(b1-4)GlcNAc
Outline: as §1

[3] = biological target: Neu5Ac(a2-6)Gal(b1-4)GlcNAc(b1-2)Man(a1-3)[Neu5Ac(a2-6)Gal(b1-4)GlcNAc(b1-2)Man(a1-6)]Man(b1-4)GlcNAc(b1-4)GlcNAc
Outline: as §1

[4] = biological target: Neu5Ac(a2-6)Gal(b1-4)GlcNAc(b1-2)Man(a1-3)[Neu5Ac(a2-6)Gal(b1-4)GlcNAc(b1-2)Man(a1-6)]Man(b1-4)GlcNAc(b1-4)[Fuc(a1-6)]GlcNAc
Outline: as §1

[5] = biological target: Neu5Ac(a2-6)Gal(b1-4)GlcNAc(b1-2)Man(a1-6)Man(b1-4)GlcNAc(b1-4)GlcNAc
Outline: as §1

[6] = biological target: Neu5Ac(a2-6)Gal(b1-4)GlcNAc(b1-2)Man(a1-6)[Gal(b1-4)GlcNAc(b1-2)Man(a1-3)]Man(b1-4)GlcNAc(b1-4)GlcNAc
Outline: as §1

[7] = biological target: Neu5Ac(a2-6)Gal(b1-4)GlcNAc(b1-2)Man(a1-6)[GlcNAc(b1-2)Man(a1-3)]Man(b1-4)GlcNAc(b1-4)GlcNAc
Outline: as §1

[8] = biological target: Neu5Ac(a2-6)Gal(b1-4)GlcNAc(b1-2)Man(a1-6)[Man(a1-3)]Man(b1-4)GlcNAc(b1-4)GlcNAc
Outline: as §1

[9] = biological target: Neu5Ac(a2-6)Gal(b1-4)GlcNAc(b1-2)[Neu5Ac(a2-6)Gal(b1-4)GlcNAc(b1-4)]Man(a1-3)[GlcNAc(b1-4)][Neu5Ac(a2-6)Gal(b1-4)GlcNAc(b1-2)[Neu5Ac(a2-6)Gal(b1-4)GlcNAc(b1-6)]Man(a1-6)]Man(b1-4)GlcNAc(b1-4)GlcNAc
Outline: as §1

[10] = biological target: Neu5Ac(a2-6)Gal(b1-4)GlcNAc(b1-2)[Neu5Ac(a2-6)Gal(b1-4)GlcNAc(b1-4)]Man(a1-3)[GlcNAc(b1-4)][Neu5Ac(a2-6)Gal(b1-4)GlcNAc(b1-4)Man(a1-6)]Man(b1-4)GlcNAc(b1-4)GlcNAc
Outline: as §1

[11] = biological target: Neu5Ac(a2-6)Gal(b1-4)GlcNAc(b1-2)[Neu5Ac(a2-6)Gal(b1-4)GlcNAc(b1-6)]Man(a1-6)[Neu5Ac(a2-6)Gal(b1-4)GlcNAc(b1-2)Man(a1-3)][GlcNAc(b1-4)]Man(b1-4)GlcNAc(b1-4)GlcNAc
Outline: as §1

[12] = biological target: Neu5Ac(a2-6)Gal(b1-4)GlcNAc(b1-3)Gal(b1-3)GlcNAc
Outline: as §1

[13] = biological target: Neu5Ac(a2-6)Gal(b1-4)GlcNAc(b1-3)Gal(b1-4)GlcNAc
Outline: as §1

[14] = biological target: Neu5Ac(a2-6)Gal(b1-4)GlcNAc(b1-3)Gal(b1-4)GlcNAc(b1-2)Man(a1-3)[Neu5Ac(a2-6)Gal(b1-4)GlcNAc(b1-3)Gal(b1-4)GlcNAc(b1-2)Man(a1-6)]GalNAc
Outline: as §1

[15] = biological target: Neu5Ac(a2-6)Gal(b1-4)GlcNAc(b1-3)Gal(b1-4)GlcNAc(b1-3)Gal(b1-4)GlcNAc
Outline: as §1

[16] = biological target: Neu5Ac(a2-6)Gal(b1-4)GlcNAc(b1-3)Gal(b1-4)GlcNAc(b1-3)Gal(b1-4)GlcNAc(b1-2)Man(a1-3)[Neu5Ac(a2-6)Gal(b1-4)GlcNAc(b1-3)Gal(b1-4)GlcNAc(b1-3)Gal(b1-4)GlcNAc(b1-2)Man(a1-6)]GalNAc
Outline: as §1

[17] = biological target: Neu5Ac(a2-6)Gal(b1-4)GlcNAc(b1-3)Gal(b1-4)GlcNAc(b1-3)GalNAc
Outline: as §1

[18] = biological target: Neu5Ac(a2-6)Gal(b1-4)GlcNAc(b1-3)Gal(b1-4)GlcNAc(b1-3)[Neu5Ac(a2-6)Gal(b1-4)GlcNAc(b1-3)Gal(b1-4)GlcNAc(b1-6)]GalNAc
Outline: as §1

[19] = biological target: Neu5Ac(a2-6)Gal(b1-4)GlcNAc(b1-3)Gal(b1-4)GlcNAc(b1-6)[Gal(b1-3)]GalNAc
Outline: as §1

[20] = biological target: Neu5Ac(a2-6)Gal(b1-4)GlcNAc(b1-3)Gal(b1-4)[Fuc(a1-3)]GlcNAc(b1-3)Gal(b1-4)[Fuc(a1-3)]GlcNAc
Outline: as §1

[21] = biological target: Neu5Ac(a2-6)Gal(b1-4)GlcNAc(b1-3)GalNAc
Outline: as §1

[22] = biological target: Neu5Ac(a2-6)Gal(b1-4)GlcNAc(b1-3)[Neu5Ac(a2-6)Gal(b1-4)GlcNAc(b1-6)]GalNAc
Outline: as §1

[23] = biological target: Neu5Ac(a2-6)Gal(b1-4)GlcNAc(b1-6)GalNAc
Outline: as §1

[24] = biological target: Neu5Ac(a2-6)Gal(b1-4)GlcNAc(b1-6)[Gal(b1-3)GlcNAc(b1-3)]Gal(b1-4)Glc
Outline: as §1

[25] = biological target: Neu5Ac(a2-6)Gal(b1-4)GlcNAc(b1-6)[Gal(b1-3)]GalNAc
Outline: as §1

[26] = biological target: Neu5Ac(a2-6)Gal(b1-4)GlcNAc6S
Outline: as §1

[27] = biological target: Neu5Ac(a2-6)GalNAc
Outline: as §1

[28] = biological target: Neu5Ac(a2-6)GalNAc(b1-4)GlcNAc
Outline: as §1

[29] = biological target: Neu5Ac(a2-6)GalNAc(b1-4)GlcNAc6S
Outline: as §1

[30] = biological target: Neu5Ac(a2-6)GlcNAc(b1-4)GlcNAc
Outline: as §1

[31] = biological target: Neu5Ac(a2-6)GlcNAc(b1-4)GlcNAc(b1-4)GlcNAc
Outline: as §1

B1: SJCP1084 (Schistosoma japonicum) (protein)
chain: MRIINLVIISTALLLINLLQTKSQANGEDTKNGTPDDPGLTKSTELKVEVQALLKDKKTNMRVKWNENLLDNTKPEYHNLRDEACELLLQIVRSVVPLSQDDGECKDVTFTKYVVGTKDGAVNVKLTITFKDSVAINQKPMDLKLKLENDFKNLQSESTLKATKPTFTVKVEKRLIPISKPQTTPPTTAKNDASKENVGDIGGEDSTVPTAAPATAASANEEKDEGDKDNKDSQHPNVLTSNVNDRNLIIALVALMILAIGVALTAAVKQR
Q: For B1, which “glycan array binding signal (z-score)” value [1] is on record?
A: -0.25

Q: And the “glycan array binding signal (z-score)” value [2]?
A: 0.504

Q: What about the “glycan array binding signal (z-score)” value [3] of the same binder?
A: 0.066

Q: And the “glycan array binding signal (z-score)” value [4]?
A: 1.05

Q: And the “glycan array binding signal (z-score)” value [5]?
A: -0.756

Q: And the “glycan array binding signal (z-score)” value [6]?
A: 0.299

Q: And the “glycan array binding signal (z-score)” value [7]?
A: 0.744

Q: And the “glycan array binding signal (z-score)” value [8]?
A: 0.566

Q: What about the “glycan array binding signal (z-score)” value [9] of the same binder?
A: -0.658

Q: And the “glycan array binding signal (z-score)” value [10]?
A: -0.623

Q: What about the “glycan array binding signal (z-score)” value [11] of the same binder?
A: -0.863

Q: What about the “glycan array binding signal (z-score)” value [12] of the same binder?
A: -1.27

Q: And the “glycan array binding signal (z-score)” value [13]?
A: -0.877

Q: And the “glycan array binding signal (z-score)” value [14]?
A: 1.12

Q: What about the “glycan array binding signal (z-score)” value [15] of the same binder?
A: -0.373

Q: And the “glycan array binding signal (z-score)” value [16]?
A: 2.19

Q: And the “glycan array binding signal (z-score)” value [17]?
A: -1.16

Q: And the “glycan array binding signal (z-score)” value [18]?
A: 1.02

Q: And the “glycan array binding signal (z-score)” value [19]?
A: -0.586

Q: And the “glycan array binding signal (z-score)” value [20]?
A: -0.346

Q: And the “glycan array binding signal (z-score)” value [21]?
A: -0.291

Q: And the “glycan array binding signal (z-score)” value [22]?
A: -0.669

Q: And the “glycan array binding signal (z-score)” value [23]?
A: -0.04

Q: And the “glycan array binding signal (z-score)” value [24]?
A: -0.969

Q: What about the “glycan array binding signal (z-score)” value [25] of the same binder?
A: -0.115

Q: What about the “glycan array binding signal (z-score)” value [26] of the same binder?
A: -1.81

Q: And the “glycan array binding signal (z-score)” value [27]?
A: 0.704

Q: What about the “glycan array binding signal (z-score)” value [28] of the same binder?
A: -1.02

Q: And the “glycan array binding signal (z-score)” value [29]?
A: -0.632

Q: What about the “glycan array binding signal (z-score)” value [30] of the same binder?
A: 0.142

Q: And the “glycan array binding signal (z-score)” value [31]?
A: -0.691
